Patent US20230141563A1, “METHODS AND COMPOSITIONS FOR ATTENUATING ANTI-VIRAL TRANSFER VECTOR IGM RESPONSES” (Selecta Biosciences, Inc., priority 2021, published 2023)
For at least one compound, name, drawing or mass did not settle the structure.

Columns and labels:
IgM antibodies to AAV = assay: Serum IgM antibodies to AAV (ELISA) in AAV-SEAP-injected mice; format: in vivo, C57BL/6 female mice; details: Example 12; AAV8-SEAP d0, 51, 105; SVP[Rapa] 100 μg; ibrutinib i.p. 500 μg daily for 17 days around every AAV8 injection
[1] = system: AAV8-SEAP transgene expression; assay: Serum SEAP levels (AAV-driven transgene expression) in mice; format: in vivo, C57BL/6 female mice; details: Example 13

C=CC(=O)N1CCC[C@@H](n2nc(-c3ccc(Oc4ccccc4)cc3)c3c(N)ncnc32)C1 [ibrutinib]
AAV IgM response (IgM antibodies to AAV): completely inefficient in IgM suppression | boost in SEAP expression at subsequent AAV administration (d51 and 105) [1]: no boost | initial transgene (SEAP) expression ([1]; AAV8-SEAP d0, 51, 105, SVP[Rapa] 100 μg, ibrutinib 500 μg): no effect vs. untreated mice
